Our source for the binding values is paper PMC5027278.

Protein sequences, listed by entry. Tags and fused reporters are not part of them. Residues count along the entry.
UniProt P29317, residues 24-976: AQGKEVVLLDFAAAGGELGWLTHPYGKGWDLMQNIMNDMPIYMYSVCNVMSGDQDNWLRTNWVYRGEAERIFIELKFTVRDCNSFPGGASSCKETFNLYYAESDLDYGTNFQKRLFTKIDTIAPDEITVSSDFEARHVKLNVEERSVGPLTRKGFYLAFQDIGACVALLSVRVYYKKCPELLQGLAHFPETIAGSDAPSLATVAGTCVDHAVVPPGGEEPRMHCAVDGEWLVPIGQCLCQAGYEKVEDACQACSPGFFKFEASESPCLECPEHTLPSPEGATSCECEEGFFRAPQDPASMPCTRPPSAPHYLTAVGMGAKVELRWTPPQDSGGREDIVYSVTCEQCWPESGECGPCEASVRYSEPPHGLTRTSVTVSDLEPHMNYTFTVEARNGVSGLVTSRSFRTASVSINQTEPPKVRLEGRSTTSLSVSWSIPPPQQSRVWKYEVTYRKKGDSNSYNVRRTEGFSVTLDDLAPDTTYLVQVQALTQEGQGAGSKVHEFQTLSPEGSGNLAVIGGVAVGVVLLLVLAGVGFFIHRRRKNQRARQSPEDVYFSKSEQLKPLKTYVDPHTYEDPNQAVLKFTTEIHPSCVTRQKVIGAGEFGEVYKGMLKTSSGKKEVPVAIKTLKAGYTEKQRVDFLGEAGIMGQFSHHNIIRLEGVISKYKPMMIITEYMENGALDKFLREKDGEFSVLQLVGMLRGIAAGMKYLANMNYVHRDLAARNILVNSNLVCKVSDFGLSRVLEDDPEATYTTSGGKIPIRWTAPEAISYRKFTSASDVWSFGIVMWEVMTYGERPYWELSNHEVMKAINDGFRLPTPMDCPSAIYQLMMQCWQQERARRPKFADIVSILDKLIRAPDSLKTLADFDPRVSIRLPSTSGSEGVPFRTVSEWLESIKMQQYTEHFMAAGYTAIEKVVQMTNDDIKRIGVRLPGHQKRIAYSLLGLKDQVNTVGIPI

Read-outs that look alike come from different tables or passages of the source. Results are given in words; binding and its absence hold for the method and conditions named. In cells and extracts the contact can be indirect. Some results given as binding are weak or reduced against the parent protein; the word gives no strength.

In assay [1] the target is VC-tagged EphA2 (UniProt P29317). As to the kind of experiment: split reporter; BiFC: VN and VC fragments of YFP (Venus) fused to the C termini of the two proteins, co-transfected into HEK293T (293) cells; cells fixed and analysed for fluorescence.
Assay [2] has the same target. Described as above. This is another data set of the same source.

Turning to “ErbB2-VN (from UniProt P04626 23-1255) (receptor)”, the binding result in the assay with VC-tagged EphA2 [1] is listed as “binds”.

B1: Numb PTB adaptor protein (protein, UniProt P49757 1-651)
chain: MNKLRQSFRRKKDVYVPEASRPHQWQTDEEGVRTGKCSFPVKYLGHVEVDESRGMHICEDAVKRLKAERKFFKGFFGKTGKKAVKAVLWVSADGLRVVDEKTKDLIVDQTIEKVSFCAPDRNFDRAFSYICRDGTTRRWICHCFMAVKDTGERLSHAVGCAFAACLERKQKREKECGVTATFDASRTTFTREGSFRVTTATEQAEREEIMKQMQDAKKAETDKIVVGSSVAPGNTAPSPSSPTSPTSDATTSLEMNNPHAIPRRHAPIEQLARQGSFRGFPALSQKMSPFKRQLSLRINELPSTMQRKTDFPIKNAVPEVEGEAESISSLCSQITNAFSTPEDPFSSAPMTKPVTVVAPQSPTFQANGTDSAFHVLAKPAHTALAPVAMPVRETNPWAHAPDAANKEIAATCSGTEWGQSSGAASPGLFQAGHRRTPSEADRWLEEVSKSVRAQQPQASAAPLQPVLQPPPPTAISQPASPFQGNAFLTSQPVPVGVVPALQPAFVPAQSYPVANGMPYPAPNVPVVGITPSQMVANVFGTAGHPQAAHPHQSPSLVRQQTFPHYEASSATTSPFFKPPAQHLNGSAAFNGVDDGRLASADRHTEVPTGTCPVDPFEAQWAALENKSKQRTNPSPTNPFSSDLQKTFEIEL
Take B1: in the assay with VC-tagged EphA2 [2], the binding result is “no binding”.
